Experimental data as given in PubChem BioAssay AID2685 (National Center for Advancing Translational Sciences (NCATS), 2010).
This is one part of the list. These are further read-outs of the screen, such as a control signal, another cell line or another target. No call is given for them. Compounds called inactive in the main read-out are mostly missing here. Potencies come from curve fits of mixed quality, noted in brackets.

Experiment: qHTS Assay for Lipid Storage Modulators in Drosophila S3 Cells;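 for cell number change: cells counted by Cell Tracker Red CMTPX staining in the red channel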
Conditions: BODIPY lipid droplet fluorescence, 18-24 h; for cell number change: measured here: cell count max response, cells fed with added oleic acid
Procedure, shortened: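 Drosophila S3 cells loaded with oleic acid (400 uM, as added) and compounds at several concentrations; lipid droplets imaged by 488-nm laser-scanning cytometry, 500–530 nm intensity and object ratio to cell channel. Percent activity normalized to 20 uM Triacsin C.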

[1] = measured here: cell number channel AC50, cells fed with added oleic acid
[2] = measured here: lipid fluorescence (Fed channel) AC50, cells fed with added oleic acid

Compound | cell number change [%] | AC50 [1] | AC50 [2]
COCCCN1Cc2ccccc2C1=N | 120 | 29.1 µM [rising, partial curve] | 0.366 µM [rising, partial curve, poor fit]
Cc1nn(C2CCOC(C)(C)C2)c2c1C(c1ccc(OC(C)C)cc1)SCC(=O)N2 (stereo not drawn) | 9.51 | 0.116 µM [rising, full curve, poor fit] | 0.116 µM [rising, full curve, poor fit]
N#CC(C#N)=Cc1ccc(-c2ccccc2F)o1 | 6.59 | 0.291 µM [falling, single point] | –
O=C1NC(=O)N(CCNc2ncc(C(F)(F)F)cc2Cl)C(=O)C1Cc1ccc(Cl)cc1 (stereo not drawn) | 36 | 29.1 µM [rising, single point] | –
c1ccc(NC2=NCCCS2)cc1 | – | 4.11 µM [falling, single point] | –
O=C(NCC(c1cccnc1)N1CCN(c2ccccc2F)CC1)Oc1ccccc1 (stereo not drawn) | 185 | 8.2 µM [rising, partial curve] | –
Nc1ccc(N=Nc2ccccc2)cc1 | 15.5 | 0.82 µM [rising, single point] | 4.61 µM [rising, full curve]
O=CNc1ccc(OP(=O)(Oc2ccccc2)Oc2ccccc2)cc1 | 6.85 | – | 3.66 µM [rising, partial curve, poor fit]
CCCCn1c(O)c(C(C)=NC(C)c2ccccc2)c(=O)[nH]c1=O (stereo not drawn) | -1.33 | – | 23.1 µM [rising, partial curve]
Cc1cccc(C)c1NC(=O)c1cccn(Cc2ccc3c(c2)OC(F)(F)O3)c1=O | -71.7 | 20.6 µM [falling, single point] | 20.6 µM [falling, single point]
CCn1c(P(C)(=O)O)nc2cc(NC(=O)c3ccccc3F)ccc21 | -32.9 | 2.91 µM [rising, single point] | –
CN(CC(=O)Nc1ccccc1-c1ccccc1)C1CCCCC1 | -44.5 | 20.6 µM [falling, single point] | 18.4 µM [falling, single point]
CC1CN(O)C2CCc3nonc3C12O (stereo not drawn) | 10.8 | – | –
CN1CCN(Cc2ccccc2Sc2ccccc2)CC1 | – | – | 0.0259 µM [falling, full curve, poor fit]
CCOC(=O)C1=Nc2ccccc2/C1=C\c1c(O)n(C)c(=O)n(C)c1=O | 7.84 | – | –
CCCc1cc(=O)oc2cc(OCC(=O)N3CCN(Cc4ccc5c(c4)OCO5)CC3)ccc12 | -7.37 | – | 6.51 µM [rising, single point]
C[C@H]1CCC/C=C/C2C[C@H](O)CC2[C@H](O)/C=C/C(=O)O1 (stereo partly drawn) | -19.5 | – | 4.61 µM [falling, partial curve, poor fit]
CCCCN1C(=N)C(CC)(CC)C(=O)NC1=O | -62.2 | 18.4 µM [falling, single point] | 20.6 µM [falling, single point]
CN1CCN(CC#CCOc2ccc(Cl)cc2)CC1 | 18.5 | – | –
C=CCn1c(O)c(C(C)=NCCc2ccccc2)c(=O)[nH]c1=O | 6.59 | 6.51 µM [rising, single point] | –
N/C(=N\[N+](=O)[O-])N1CCN(C(=O)OC2CCCC2)CC1 | -14.4 | – | –

Compound | cell number change [%] | AC50 [1] | AC50 [2]
Cc1cc(C)[n+](C2C3CC4CC(C3)CC2C4)o1 (stereo not drawn) | -61.5 | 18.4 µM [falling, single point] | 20.6 µM [falling, single point]
COC(=O)C1=C(c2ccc(F)cc2OCc2ccccc2)C[C@@H]2CC[C@H]1N2C(=O)NCc1ccc(C)cc1 | -5.16 | – | 6.51 µM [falling, partial curve, poor fit]
COc1ccc(NC(=O)N2C[C@@H]3C[C@@H](C2)c2cccc(=O)n2C3)cc1 | -16.1 | – | 1.3 µM [falling, full curve, poor fit]
CC(ON1CC1(C(F)(F)F)C(F)(F)F)(C(N)=O)C(N)=O (stereo not drawn) | -3.29 | – | 29.1 µM [falling, single point]
COC(=O)C1=C(c2ccc(S(C)(=O)=O)cc2)C[C@@H]2CC[C@H]1N2C | 4.93 | – | –
CCCNC1=C(C)C(=O)C2=C(C1=O)C(COC(N)=O)[C@]1(OC)C3NC3CN21 (stereo partly drawn) | 19.7 | – | –
CCN1CCN(Cc2cc(Br)ccc2O)CC1 | 21.3 | – | 0.116 µM [rising, full curve, poor fit]
Cc1cc(C)[n+](CCCC[n+]2c(C)cc(C)cc2C)c(C)c1 | 1.45 | 6.51 µM [falling, single point] | 0.651 µM [rising, partial curve, poor fit]
CCOc1cccc(=NC2CCCCC2)c2c(C)n(C)c(C)c12 | -66.6 | 3.66 µM [falling, full curve] | 2.06 µM [falling, full curve]
COC(=O)C1=C(c2ccc3ccccc3c2)C[C@@H]2CC[C@H]1N2C(=O)NCc1ccc(C(F)(F)F)cc1 | -1.68 | – | 0.0184 µM [rising, full curve, poor fit]
CC1CN=C(Nc2cccc3ccccc23)S1 (stereo not drawn) | -7.31 | – | –
CCN1CCC(N(C)C2CCCCC2)CC1 | -5.41 | – | 20.6 µM [falling, single point]
O=[N+]([O-])c1cccc(O)c1 | -8.93 | – | 0.116 µM [falling, single point]
COC(=O)C1=C(c2ccc(F)cc2OCc2ccccc2)C[C@@H]2CC[C@H]1N2C(=O)NCCOc1ccc(OC)cc1 | -9.75 | – | 0.411 µM [falling, partial curve, poor fit]
COc1ccc(C(=O)NC(=S)N2C[C@H]3C[C@H](C2)c2cccc(=O)n2C3)cc1OC | 23 | – | 6.51 µM [rising, single point]
Cc1cccc(-c2nc3ccc(C(=O)N4CCC5(CC4)OCCO5)cc3nc2-c2cccc(C)c2)c1 | -8.96 | – | 2.59 µM [falling, partial curve]
CCOC(=O)C1=C(N)OC2=C(C(=O)CCC2)C12C(=O)N(CC(N)=O)c1ccccc12 (stereo not drawn) | -17.7 | – | 6.51 µM [rising, single point]
N#CC1=C(N)Oc2c(c(=O)oc3ccccc23)C1c1ccc(OC(=O)N2CCOCC2)cc1 (stereo not drawn) | -25.8 | – | 5.17 µM [rising, single point]
O=C(Cc1cccs1)N1CCC2(CC1)OCCO2 | 4.17 | – | 4.61 µM [falling, full curve]
CC1Oc2cc3c(-c4c(O)cc(O)c5c(O)c6c(cc45)OC(C)C(C)C6=O)c(O)cc(O)c3c(O)c2C(=O)C1C (stereo not drawn) | -22.4 | – | –
CCCCSP1(=S)NCCCN1 | 8.63 | – | 29.1 µM [rising, single point]

Compound | cell number change [%] | AC50 [1] | AC50 [2]
O=C(N/N=C/c1c(O)n(C2CC2)c(=S)[nH]c1=O)c1ccccc1O | 13.8 | – | –
O=c1nc(/C=C/c2ccc(Cl)cc2Cl)cc(C(F)(F)F)[nH]1 | -37.6 | 18.4 µM [falling, single point] | –
CCC(C)NC(=O)c1c(N)n(Cc2ccc3c(c2)OCO3)c2nc3ccccc3nc12 (stereo not drawn) | -39.5 | 29.1 µM [falling, single point] | 1.64 µM [rising, partial curve]
CN[C@@H]1C[C@@H](c2ccc(Cl)c(Cl)c2)c2ccccc21 | -66.4 | 20.6 µM [falling, single point] | –
CC(=O)Nc1cccc([As](=O)(c2cccc(NC(C)=O)c2)c2cccc(NC(C)=O)c2)c1 | -19.6 | – | –
CC(C)OCCCNC(=O)c1c(N)n(CC2CCCO2)c2nc3ccccc3nc12 (stereo not drawn) | -26.4 | – | 25.9 µM [falling, partial curve]
COc1ccc(-[n+]2c(-c3ccccc3)cc(-c3ccc(C)cc3)cc2-c2ccccc2)cc1 | -22.8 | – | –
CCC(=NCCc1c[nH]c2ccccc12)c1c(O)n(-c2ccc(C)cc2)c(=O)[nH]c1=O | -14.8 | – | 16.4 µM [rising, partial curve]
NS(=O)(=O)c1ccc(N=Cc2c(O)n(-c3ccccc3)c(=O)[nH]c2=O)cc1 | -11.3 | – | –
CN1CCc2nc3sc(C(=O)NC4CC4)c(N)c3cc2C1 | -10.1 | – | –
CCC(C)N1C(=O)NC(=O)C2(Cc3cc(C)ccc3N(C)C2)C1=O (stereo not drawn) | 3.38 | – | –
O=Cc1cn(Cc2cccc([N+](=O)[O-])c2)c2ccccc12 | -7.69 | – | 6.51 µM [rising, partial curve]
O=c1[nH]c(=S)[nH]c(O)c1N=Nc1ccc2c(c1)OCO2 | – | – | 0.00461 µM [rising, full curve, poor fit]
Oc1ccccc1CN(CCc1ccccc1)Cc1ccccc1 | -5.11 | – | 0.58 µM [rising, single point]
CCC(C)n1c(O)c(C=Nc2cccc(C(F)(F)F)c2)c(=O)[nH]c1=S (stereo not drawn) | -29.7 | – | 7.31 µM [falling, partial curve, poor fit]
Cc1cc(N)n(C2CCN(C)CC2)n1 | -20.2 | – | 3.66 µM [falling, full curve]
CCOP(=O)(OCC)C(O)c1cccc([N+](=O)[O-])c1 (stereo not drawn) | -74.9 | 0.651 µM [falling, partial curve] | 0.206 µM [falling, full curve]
N=Cc1c(O)n(-c2cccc(Cl)c2)c(=O)[nH]c1=O | – | – | 23.1 µM [falling, partial curve]
Cc1ccccc1OP(N)(=O)Oc1ccccc1C | 26 | 4.11 µM [rising, full curve, poor fit] | –
O=C(c1ccccc1F)c1cn(Cc2ccccc2)c2ccccc12 | -17.2 | – | –
Cc1ccc(C)c(NC(=O)CCNC(=O)N2C[C@H]3C[C@@H](C2)c2cccc(=O)n2C3)c1 | – | 6.51 µM [rising, single point] | 29.1 µM [rising, single point]

3 structures out of the list, arranged by formula weight, smallest number first.
Compound | cell number change [%] | AC50 [1] | AC50 [2]
COc1ccc(NC(=O)N2C[C@@H]3C[C@@H](C2)c2cccc(=O)n2C3)cc1 | -16.1 | – | 1.3 µM [falling, full curve, poor fit]
CC(C)OCCCNC(=O)c1c(N)n(CC2CCCO2)c2nc3ccccc3nc12 (stereo not drawn) | -26.4 | – | 25.9 µM [falling, partial curve]
O=C1NC(=O)N(CCNc2ncc(C(F)(F)F)cc2Cl)C(=O)C1Cc1ccc(Cl)cc1 (stereo not drawn) | 36 | 29.1 µM [rising, single point] | –
